Source: patent US20190144517A1 (SHANGHAI JW INFLINHIX, published 2019)
No constants are given. Whether binding was seen depends on the method and setting. Some results given as binding are weak or reduced against the parent protein; the word gives no strength.

The chains behind the UniProt entries cited, without tags or fusion partners. Where a name states a change or a piece, a line headed by the entry shows the natural chain unless it says otherwise.
UniProt P01375: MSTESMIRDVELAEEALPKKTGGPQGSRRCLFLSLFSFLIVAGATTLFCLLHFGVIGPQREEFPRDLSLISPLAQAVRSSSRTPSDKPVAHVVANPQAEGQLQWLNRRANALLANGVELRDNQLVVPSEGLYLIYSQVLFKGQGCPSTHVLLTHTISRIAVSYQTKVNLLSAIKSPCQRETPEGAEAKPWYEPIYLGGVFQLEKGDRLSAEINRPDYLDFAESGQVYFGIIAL

Molecular target: monoclonal antibody 244-12
Assay: summary table, column 'binding to cell necrosis-promoting antibodies'

## Tumor necrosis factor alpha (TNF) (from UniProt P01375 77-233) (ligand)
  binding: binds

## polypeptide of SEQ ID NO: 2 (from UniProt P01375 77-233)
  binding: binds
